Earlier results as cited in PMC12015351 (Scientific Reports, 2025).

Key:
[1] = system: SARS-CoV-2-induced cytopathic effects in human A549 cells (A549/ACE2); conditions: live virus; cited from earlier work
[2] = system: SARS-CoV-2-induced cytopathic effects in Vero E6; conditions: live virus; cited from earlier work

CC(C)(C)c1ccc(C(=O)CCCN2CCC(OC(c3ccccc3)c3ccccc3)CC2)cc1 [ebastine]
inhibition of SARS-CoV-2-induced cytopathic effects [1]: significant inhibition
inhibition of SARS-CoV-2-induced cytopathic effects [2]: significant inhibition
